Experimental data as given in PMC8692159.
Results are given in words; binding and its absence hold for the method and conditions named. Binding seen in cells or lysates may run through a third protein. Some binding calls cover weakened binding; strength is not graded here. For some assays here: Sequences can lack the tags named with a protein.

The chains behind the UniProt entries cited, without tags or fusion partners.
UniProt Q9NXR7: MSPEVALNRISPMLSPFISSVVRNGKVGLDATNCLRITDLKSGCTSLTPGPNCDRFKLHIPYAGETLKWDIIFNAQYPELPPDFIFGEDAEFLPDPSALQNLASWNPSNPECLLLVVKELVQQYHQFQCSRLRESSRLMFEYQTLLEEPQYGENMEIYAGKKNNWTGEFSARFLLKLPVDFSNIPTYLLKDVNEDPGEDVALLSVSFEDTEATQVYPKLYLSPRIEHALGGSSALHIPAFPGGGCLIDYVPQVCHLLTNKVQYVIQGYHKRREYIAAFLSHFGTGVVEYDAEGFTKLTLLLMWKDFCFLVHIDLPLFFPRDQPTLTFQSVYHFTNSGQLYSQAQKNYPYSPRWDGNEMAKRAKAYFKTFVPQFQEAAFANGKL

Key:
Flag-BABAM2 = Flag-BABAM2 (UniProt Q9NXR7); assay: co-IP; MYC-PPDPF and Flag-BABAM2 plasmids transfected into HEK293T, 48 h; lysis in 50 mM Tris-HCl pH 8.0, 150 mM NaCl, 0.1% NP-40; beads coupled to anti-Flag or anti-MYC antibody, 4 h; western blot
[1] = target: endogenously expressed BABAM2 (human (endogenous in A549)) (UniProt Q9NXR7); assay: co-IP; endogenous proteins, A549 lysate; 0.2 ug anti-BABAM2 antibody overnight at 4 C, Protein A/G beads; western blot

Row | Binder | binding (Flag-BABAM2) | binding [1]
1 | MYC-PPDPF (protein, UniProt Q9H3Y8 1-114) MAAIPSSGSLVATHDYYRRRLGSTSSNSSCSSTECPGEAIPHPPGLPKADPGHWWASFFFGKSTLPFMATVLESAEHSEPPQASSSMTACGLARDAPRKQPGGQSSTASAGPPS | binds | –
2 | endogenously expressed PPDPF (protein, UniProt Q9H3Y8 1-114) MAAIPSSGSLVATHDYYRRRLGSTSSNSSCSSTECPGEAIPHPPGLPKADPGHWWASFFFGKSTLPFMATVLESAEHSEPPQASSSMTACGLARDAPRKQPGGQSSTASAGPPS | – | binds
